Data published in the supplement of paper PMC8104966.
± gives the standard deviation of the averaged measurements. The list shows a part of the results. Single values are uncertain here, since repeats match poorly.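 U2OS cells expressing ACE2 were combined with U2OS cells expressing full-length spike, and imaging quantified fusion as the fraction of nuclei displaying both cell types' fluorescent markers. Non-toxic compounds with a fusion z-score under -3, i.e., over three standard deviations below the plate's DMSO wells, are called inhibitory hits.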

The compounds below were run on U2OS ACE2 x SARS-CoV-2 spike co-culture (assay: cell-cell fusion (fraction fused) z-score vs plate DMSO control; higher = more fusion). Settings: 30 µM; 5 h; toxicity class: non-toxic, passed QC.

SMILES	cell-cell fusion (z-score)
CNC(=O)Oc1ccc2c(c1)[C@]1(C)CCN(C)[C@@H]1N2C.O=C(O)c1ccccc1O	inactive: -0.907
O=C(/C=C/c1ccc(O)cc1)CC(=O)/C=C/c1ccc(O)cc1 [Bisdemethoxycurcumin]	inactive: 4.54
NCC1OC(O[C@@H]2[C@H](O)C(OC3C(O)C(N)CC(N)C3OC3OC(CO)C(O)C(O)C3N)O[C@@H]2CO)C(N)C(O)C1O.O=S(=O)(O)O (some centres undefined) [Paromomycin sulfate]	inactive: 1.93
CC1(C)CCC2=C(O1)C(=O)c1ccccc1C2=O [alpha-LAPACHONE]	inactive: 1.1
CCCN(CCc1cccs1)[C@H]1CCc2c(O)cccc2C1 [Rotigotine]	inactive: 0.131
CCN1CCN(Cc2ccc(Nc3ncc(F)c(-c4cc(F)c5nc(C)n(C(C)C)c5c4)n3)nc2)CC1.CS(=O)(=O)O	inactive: 0.991
CO[C@H]1O[C@@H]2O[C@@]3(C)CC[C@H]4[C@H](C)CC[C@@H]([C@H]1C)[C@@]24OO3 [Artemether]	inactive: 1.29
NC[C@H]1O[C@H](O[C@H]2[C@H](O)[C@@H](O[C@H]3O[C@H](CO)[C@@H](O)[C@H](N)[C@H]3O)[C@H](N)C[C@@H]2N)[C@H](N)[C@@H](O)[C@@H]1O.O=S(=O)(O)O	inactive: 1.82
CCN(CC)CCNC(=O)c1ccc(NS(C)(=O)=O)cc1.Cl.O [Sematilide monohydrochloride monohydrate]	inactive: 3.73
c1cncc(C2=NCCC2)c1	inactive: 1.84
CO/N=C(\C(=O)N[C@@H]1C(=O)N2C(C(=O)[O-])=C(COC(N)=O)CS[C@H]12)c1ccco1.[Na+] [Cefuroxime sodium]	inactive: 1.29
COc1cnc(NS(=O)(=O)c2ccc(N)cc2)nc1	inactive: 1.87
Cl.Fc1ccc(C(OCCCc2c[nH]cn2)c2ccc(F)cc2)cc1	inactive: 2.75
CCN(CC)CCNC(=O)c1cc(S(C)(=O)=O)ccc1OC.Cl [Tiapride hydrochloride]	inactive: 2.76
Cc1ccc(=O)n(-c2ccccc2)c1 [Pirfenidone]	inactive: 2.41
c1ccc2c(CCNc3ccc(Nc4ccncc4)cc3)c[nH]c2c1	inactive: -0.461
Cc1ccc([C@@H]2O[C@H](CO)[C@@H](O)[C@H](O)[C@H]2O)cc1Cc1ccc(-c2ccc(F)cc2)s1 [Canagliflozin]	inactive: 0.908
CCCc1nn(C)c2c(=O)[nH]c(-c3cc(S(=O)(=O)N4CCN(C)CC4)ccc3OCC)nc12.O=C(O)CC(O)(CC(=O)O)C(=O)O [Sildenafil citrate]	inactive: 1.25
CC(=O)OCC(=O)[C@@]12O[C@@H]1CC1C3CC=C4C[C@@H](O)CC[C@]4(C)C3CC[C@@]12C (some centres undefined)	inactive: 0.0105
Cc1cccc(CN2CCN(C(c3ccccc3)c3ccc(Cl)cc3)CC2)c1.Cl.Cl (centres undefined)	inactive: -0.115
CN/C(=N\C#N)NCCSCc1nc[nH]c1C	inactive: 1.48
C[N+]1(C)C2CCC1CC(OC(=O)c1c[nH]c3ccccc13)C2.[I-] (centres undefined) [3-Tropanylindole-3-carboxylate methiodide]	active: -3.84
N#CC(=Cc1ccc(O)c(O)c1)C(N)=S [Tyrphostin 47]	inactive: 1.16

Another view of part of the listing above:

| SMILES | cell-cell fusion (z-score) |
| --- | --- |
| NCC1OC(O[C@@H]2[C@H](O)C(OC3C(O)C(N)CC(N)C3OC3OC(CO)C(O)C(O)C3N)O[C@@H]2CO)C(N)C(O)C1O.O=S(=O)(O)O (some centres undefined) [Paromomycin sulfate] | inactive: 1.93 |
| CC1(C)CCC2=C(O1)C(=O)c1ccccc1C2=O [alpha-LAPACHONE] | inactive: 1.1 |
| CCCN(CCc1cccs1)[C@H]1CCc2c(O)cccc2C1 [Rotigotine] | inactive: 0.131 |
| CCN1CCN(Cc2ccc(Nc3ncc(F)c(-c4cc(F)c5nc(C)n(C(C)C)c5c4)n3)nc2)CC1.CS(=O)(=O)O | inactive: 0.991 |
| CO[C@H]1O[C@@H]2O[C@@]3(C)CC[C@H]4[C@H](C)CC[C@@H]([C@H]1C)[C@@]24OO3 [Artemether] | inactive: 1.29 |
| NC[C@H]1O[C@H](O[C@H]2[C@H](O)[C@@H](O[C@H]3O[C@H](CO)[C@@H](O)[C@H](N)[C@H]3O)[C@H](N)C[C@@H]2N)[C@H](N)[C@@H](O)[C@@H]1O.O=S(=O)(O)O | inactive: 1.82 |
| CCN(CC)CCNC(=O)c1ccc(NS(C)(=O)=O)cc1.Cl.O [Sematilide monohydrochloride monohydrate] | inactive: 3.73 |
| c1cncc(C2=NCCC2)c1 | inactive: 1.84 |
| CO/N=C(\C(=O)N[C@@H]1C(=O)N2C(C(=O)[O-])=C(COC(N)=O)CS[C@H]12)c1ccco1.[Na+] [Cefuroxime sodium] | inactive: 1.29 |
| COc1cnc(NS(=O)(=O)c2ccc(N)cc2)nc1 | inactive: 1.87 |
| Cl.Fc1ccc(C(OCCCc2c[nH]cn2)c2ccc(F)cc2)cc1 | inactive: 2.75 |
| CCN(CC)CCNC(=O)c1cc(S(C)(=O)=O)ccc1OC.Cl [Tiapride hydrochloride] | inactive: 2.76 |
| Cc1ccc(=O)n(-c2ccccc2)c1 [Pirfenidone] | inactive: 2.41 |
| c1ccc2c(CCNc3ccc(Nc4ccncc4)cc3)c[nH]c2c1 | inactive: -0.461 |
| Cc1ccc([C@@H]2O[C@H](CO)[C@@H](O)[C@H](O)[C@H]2O)cc1Cc1ccc(-c2ccc(F)cc2)s1 [Canagliflozin] | inactive: 0.908 |
| CCCc1nn(C)c2c(=O)[nH]c(-c3cc(S(=O)(=O)N4CCN(C)CC4)ccc3OCC)nc12.O=C(O)CC(O)(CC(=O)O)C(=O)O [Sildenafil citrate] | inactive: 1.25 |
| CC(=O)OCC(=O)[C@@]12O[C@@H]1CC1C3CC=C4C[C@@H](O)CC[C@]4(C)C3CC[C@@]12C (some centres undefined) | inactive: 0.0105 |
| Cc1cccc(CN2CCN(C(c3ccccc3)c3ccc(Cl)cc3)CC2)c1.Cl.Cl (centres undefined) | inactive: -0.115 |
| CN/C(=N\C#N)NCCSCc1nc[nH]c1C | inactive: 1.48 |
| C[N+]1(C)C2CCC1CC(OC(=O)c1c[nH]c3ccccc13)C2.[I-] (centres undefined) [3-Tropanylindole-3-carboxylate methiodide] | active: -3.84 |

Following part.

SMILES	cell-cell fusion (z-score)
CC(=O)O.CC(=O)O.N=C(NCCCCCCNC(=N)NC(=N)Nc1ccc(Cl)cc1)NC(=N)Nc1ccc(Cl)cc1 [Chlorhexidine Acetate]	active: -13
COc1ccc(C[C@@H](C)NC[C@H](O)c2ccc(O)c(NC=O)c2)cc1 [Formoterol]	inactive: -0.9
Cc1c(-c2cnccn2)ssc1=S	inactive: 1.56
N.N.O=C1[O][Pt][O]C(=O)C12CCC2	inactive: 1.3
COc1ccc(-n2nc(CCC(=O)N(C)O)cc2-c2ccc(Cl)cc2)cc1	inactive: 1.46
C[C@]12CCC(OC(=O)c3ccccc3)CC1CCc1ccccc12 (some centres undefined)	inactive: 0.402
CC(=O)c1c(O)cc(O)cc1O	inactive: 0.915
O=C1c2ccccc2-c2cccc3cccc1c23	inactive: 1.58
C[C@H](N)C(=O)NC(Cc1ccccc1)C(=O)O (mixture of isomers)	inactive: 2.22
O=C(CCCCCCC(=O)Nc1ccccc1)NO [Vorinostat (SAHA)]	inactive: 1.87
Cc1cc(C(C)(C)C)cc(C)c1CC1=NCCN1.Cl	inactive: 0.695
Cc1cc(C(C)(C)C)cc(C)c1CC1=NCCN1.Cl [Xylometazoline hydrochloride]	inactive: 1.13
NC[C@H]1O[C@H](O[C@H]2[C@H](O)[C@@H](O[C@H]3O[C@H](CO)[C@@H](O)[C@H](N)[C@H]3O)[C@H](N)C[C@@H]2N)[C@H](O)[C@@H](O)[C@@H]1O.O=S(=O)(O)O [Kanamycin sulfate]	inactive: 2.15
C=CCN1CC[C@]23c4c5ccc(O)c4O[C@H]2C(=O)CC[C@@]3(O)[C@H]1C5.Cl [Naloxone hydrochloride]	inactive: 1.04
C[N+]1(C)C2CC[C@H]1C[C@@H](OC(=O)C(O)c1ccccc1)C2.[Br-] (some centres undefined)	inactive: 0.175
CCOc1cc2ncc(C#N)c(Nc3ccc(F)c(Cl)c3)c2cc1NC(=O)/C=C/CN(C)C [Pelitinib (EKB-569)]	-5.52 ± 4.8
Cl[C@H]1[C@H](Cl)[C@@H](Cl)[C@@H](Cl)[C@H](Cl)[C@H]1Cl	inactive: 1.62
CCOc1ccc(S(=O)(=O)[O-])c2cccnc12.[Na+]	inactive: 4.81
CC(C)NNC(=O)c1ccncc1.O=P(O)(O)O	inactive: 2.29
CC(C)NNC(=O)c1ccncc1.O=P(O)(O)O [Iproniazid phosphate]	inactive: 2.76
CC(=O)O[C@H]1CCC2(C)C3=C(CCC2C1(C)C)[C@]1(C)CCC(C(C)CCC=C(C)C)[C@@]1(C)CC3 (some centres undefined)	inactive: 3.86
CCCCOc1cc(C(=O)NCCN(CC)CC)c2ccccc2n1.Cl [Dibucaine hydrochloride]	inactive: -1.56
CN[C@@H]1[C@H](OC2[C@H](O[C@H]3[C@H](O)[C@@H](O)[C@H](NC(=N)N)[C@@H](O)[C@@H]3NC(=N)N)O[C@@H](C)[C@]2(O)C=O)O[C@@H](CO)[C@H](O)[C@H]1O.O=S(=O)(O)O (some centres undefined) [STREPTOMYCIN SULFATE [5mM; 10% aq DMSO + 5mM ethanolamine]]	inactive: 2.71

SMILES	cell-cell fusion (z-score)
CN(C)CCCN1c2ccccc2Sc2ccc(C(F)(F)F)cc21.Cl [Triflupromazine hydrochloride]	inactive: -0.949
O=c1c2ccccc2[se]n1-c1ccccc1	inactive: 2.44
CCN(CC)CCOc1ccc2c(c1)C(=O)c1cc(OCCN(CC)CC)ccc1-2	inactive: 2.82
CN(C)c1ccc(O)c2c1C[C@H]1C[C@H]3[C@H](N(C)C)C(O)=C(C(N)=O)C(=O)[C@@]3(O)C(O)=C1C2=O.Cl	inactive: 1.6
CN(C)CC[C@@H](c1ccc(Br)cc1)c1ccccn1.O=C(O)/C=C\C(=O)O [(+)-Brompheniramine maleate]	inactive: 2.42
CC(=O)N[C@@H](Cc1ccccc1)C(=O)O	inactive: 1.73
CCN(CC)CCCC(C)Nc1nc(C)cc(Nc2ccc3nc(C)cc(N)c3c2)n1.Cl.Cl.Cl (centres undefined)	inactive: 1.75
COc1cc(CNC(=O)CCCC/C=C/C(C)C)ccc1O	inactive: 3.35
COc1ccc(C(CN(C)C)C2(O)CCCCC2)cc1.Cl (centres undefined) [Venlafaxine hydrochloride]	inactive: 2.66
CC(C)[N+]1(C)C2CC[C@H]1C[C@@H](OC(=O)C(CO)c1ccccc1)C2.[Br-] (some centres undefined)	inactive: 0.318
O=c1c2cc(O)c(O)cc2oc2cc(O)c(C3O[C@H](CO)[C@H](O)[C@@H](O)[C@H]3O)c(O)c12 (some centres undefined)	inactive: 3.22
CCCCc1ncc(/C=C(\Cc2cccs2)C(=O)O)n1Cc1ccc(C(=O)O)cc1.CS(=O)(=O)O [Eprosartan mesylate]	inactive: 2.21
CCCC(C)(COC(N)=O)COC(=O)NC(C)C (centres undefined)	inactive: 1.73
O=C(O)c1ccccc1Nc1ccccc1	inactive: 2.8
CC(C)C(=O)OCC(=O)[C@@]12O[C@H](C3CCCCC3)O[C@@H]1C[C@H]1[C@@H]3CCC4=CC(=O)C=C[C@]4(C)[C@H]3[C@@H](O)C[C@@]12C [Ciclesonide]	inactive: 1.4
CC1=NCCC2c3ccc(O)cc3NC12 (centres undefined)	inactive: 2.92
Cl.c1ccc([C@H]2CN3CCSC3=N2)cc1 [Levamisole hydrochloride]	inactive: 2.96
C#C[C@]1(O)CCC2C3CCC4=C(CCC(=O)C4)C3CC[C@@]21C (some centres undefined)	inactive: 0.5
Cl.NCCCC(N)(C(=O)O)C(F)F (centres undefined)	inactive: 0.766
CC(C)=CCC1=C(O)C(=O)c2ccccc2C1=O	inactive: 0.349
CC[C@@H](C(N)=O)N1CCCC1=O [Levetiracetam]	inactive: 2.91
CN1CC[C@H](c2c(O)cc(O)c3c(=O)cc(-c4ccccc4Cl)oc23)[C@H](O)C1.Cl [Flavopiridol HCl]	inactive: 0.723
CN1CC[C@H](c2c(O)cc(O)c3c(=O)cc(-c4ccccc4Cl)oc23)[C@H](O)C1.Cl [Flavopiridol hydrochloride]	inactive: 1.06
